# Data as given in PubChem BioAssay AID1259405 (NCATS, 2018)
# Purpose: 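Mouse-designed siRNAs used to find CHO productivity engineering targets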 (primary screen)
# Cell system: Chinese hamster CHO-K1 ovary cells with stable secreted eGFP expression
# Reagent: single siRNA against mouse genes, 0.8 pmol siRNA per well (2 µl of 400 nM stock)
# Timing: 3 days
# Measured: 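Per-well intracellular GFP measured by laser scanning cytometry, plus viability from ATP luminescence, each relative to plate median of non-targeting control wells, in %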
# Direction: GFP, % of control: higher = more GFP per well, higher productivity; viability (ATP), % of control: higher = more viable cells (more ATP)
# Call rule: 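a knock-down is called active if GFP reaches 120% or more of non-targeting control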
# This is a random part of about 50,000 reagents. In the full data, about 4,000 (8%) got an active call. 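Mouse siRNA library applied to hamster cells; one well for each siRNA.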 Reagents against one gene are numbered here.
gene knocked down,siRNA no.,"GFP, % of control","viability (ATP), % of control",Outcome
Ankrd39 (GeneID 109346),1,40.1,62.2,inactive
Ankrd39 (GeneID 109346),2,81,84.9,inactive
Ankrd39 (GeneID 109346),3,101,109,inactive
Tceal1 (GeneID 237052),1,90.7,82.8,inactive
Tceal1 (GeneID 237052),2,68.3,66.1,inactive
Tceal1 (GeneID 237052),3,79.1,75.2,inactive
Wscd1 (GeneID 216881),1,73.5,61.8,inactive
Wscd1 (GeneID 216881),2,87.3,92.3,inactive
Wscd1 (GeneID 216881),3,44.6,35.7,inactive
Slc8a2 (GeneID 110891),1,48.3,60.4,inactive
Slc8a2 (GeneID 110891),2,54.2,48.8,inactive
Slc8a2 (GeneID 110891),3,76,75.9,inactive
Hes6 (GeneID 55927),1,59.8,85.6,inactive
Hes6 (GeneID 55927),2,60.2,83.2,inactive
Gdnf (GeneID 14573),1,86.8,78.9,inactive
Gdnf (GeneID 14573),2,115,77.4,inactive
Gdnf (GeneID 14573),3,72.1,64.3,inactive
Itpr1 (GeneID 16438),1,141,78.2,active
Itpr1 (GeneID 16438),2,86.3,60.9,inactive
Itpr1 (GeneID 16438),3,85.8,46.5,inactive
Scgb3a1 (GeneID 68662),1,66.2,51.7,inactive
Scgb3a1 (GeneID 68662),2,61.4,39.8,inactive
Scgb3a1 (GeneID 68662),3,60.3,97.6,inactive
Cenpx (GeneID 20892),1,71.2,42.7,inactive
Cenpx (GeneID 20892),2,111,120,inactive
Cenpx (GeneID 20892),3,121,101,active
Ces4a (GeneID 234677),1,58,63.3,inactive
Ces4a (GeneID 234677),2,82.3,103,inactive
Ces4a (GeneID 234677),3,46.1,52.5,inactive
Il17b (GeneID 56069),1,59.7,36.8,inactive
Il17b (GeneID 56069),2,41.8,32,inactive
Il17b (GeneID 56069),3,68.1,56.4,inactive
Clec4a2 (GeneID 26888),1,83.6,56.5,inactive
Clec4a2 (GeneID 26888),2,84.6,77.8,inactive
Clec4a2 (GeneID 26888),3,71.3,94.5,inactive
Kif3c (GeneID 16570),1,88.9,46.8,inactive
Kif3c (GeneID 16570),2,91.4,97.7,inactive
Rpl6 (GeneID 19988),1,42.1,30.2,inactive
Rpl6 (GeneID 19988),2,47.8,22.7,inactive
Rpl6 (GeneID 19988),3,30.7,31.2,inactive
Rnf31 (GeneID 268749),1,107,91.2,inactive
Rnf31 (GeneID 268749),2,26.1,58.5,inactive
Rnf31 (GeneID 268749),3,50.2,69.6,inactive
Muc1 (GeneID 17829),1,62.1,73.7,inactive
Muc1 (GeneID 17829),2,68.5,62.6,inactive
Muc1 (GeneID 17829),3,53.1,75.7,inactive
Prl3c1 (GeneID 27372),1,53.1,70.1,inactive
Prl3c1 (GeneID 27372),2,57.5,77.7,inactive
Prl3c1 (GeneID 27372),3,71.3,87.2,inactive
Vmn1r188 (GeneID 252912),1,55.1,75.9,inactive
Vmn1r188 (GeneID 252912),2,65.1,61.4,inactive
Vmn1r188 (GeneID 252912),3,68.4,88.1,inactive
Or56a4 (GeneID 244187),1,83.7,44.7,inactive
Or56a4 (GeneID 244187),2,80.9,58.3,inactive
Or56a4 (GeneID 244187),3,62.7,105,inactive
Cass4 (GeneID 320664),1,63.2,75.6,inactive
Cass4 (GeneID 320664),2,121,60.5,active
Cass4 (GeneID 320664),3,90.5,62.6,inactive

Entries listed so far whose gene name begins with S or s (6):
gene knocked down,siRNA no.,"GFP, % of control","viability (ATP), % of control",Outcome
Slc8a2 (GeneID 110891),1,48.3,60.4,inactive
Slc8a2 (GeneID 110891),2,54.2,48.8,inactive
Slc8a2 (GeneID 110891),3,76,75.9,inactive
Scgb3a1 (GeneID 68662),1,66.2,51.7,inactive
Scgb3a1 (GeneID 68662),2,61.4,39.8,inactive
Scgb3a1 (GeneID 68662),3,60.3,97.6,inactive
